Data as given in PubChem BioAssay AID1508588 (Peter MacCallum Cancer Centre, 2020).
The whole screen tested about 18,000 reagents; this is a part drawn at random. Over the whole deposit, 790 (4.4%) are marked active. 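Calls rest on a combination of fold-change classes in drug and vehicle arms, not all shown here.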 No sequences are given here.

Purpose: 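Genome-wide search for knock-downs that heighten vemurafenib action in melanoma cells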 (primary screen)
System: human WM266.4 melanoma cells (BRAF V600 mutant)
Reagent: siRNA pool against human genes, 40 nM
Timing: 96 h from transfection to read-out
Challenge: vemurafenib 300 nM (about IC25), added 48 h after transfection, for 48 h; comparison arm got DMSO vehicle only
Detection: 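Ratios to non-targeting siRNA for cell gain, counted as DAPI nuclei after minus before drug and averaged over two replicates, and for absorbance-read medium lactate per cell; both binned into fold-change classes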
Reading the numbers: cell gain with vemurafenib: higher = more cell gain than with non-targeting siRNA; lactate per cell with vemurafenib: higher = more lactate made per cell
Rule for the call: 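a knock-down counts as enhancing when its fold-change classes with vehicle and with vemurafenib, taken together, show a stronger drug effect on cell gain or lactate per cell; exact class pairs not stated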
Meaning of the calls: active = enhances vemurafenib effect; inactive = no enhancement seen

HYAL2 → cell gain with vemurafenib = 1.01; lactate per cell with vemurafenib = 0.52; call = inactive
RABEP1 → cell gain with vemurafenib = 1.01; lactate per cell with vemurafenib = 0.38; call = inactive
SLC52A2 → cell gain with vemurafenib = 1.04; lactate per cell with vemurafenib = 0.93; call = inactive
FBXO32 → cell gain with vemurafenib = 0.73; lactate per cell with vemurafenib = 1.22; call = inactive
DNAJB8 → cell gain with vemurafenib = 0.6; lactate per cell with vemurafenib = 0.91; call = inactive
PGA5 → cell gain with vemurafenib = 0.66; lactate per cell with vemurafenib = 0.62; call = inactive
NFASC → cell gain with vemurafenib = 0.76; lactate per cell with vemurafenib = 0.19; call = active
GPR15LG → cell gain with vemurafenib = 0.36; lactate per cell with vemurafenib = 1.38; call = inactive
BARX1 → cell gain with vemurafenib = 0.46; lactate per cell with vemurafenib = 2.15; call = inactive
PCYT2 → cell gain with vemurafenib = 0.88; lactate per cell with vemurafenib = 0.77; call = inactive
CDR2 → cell gain with vemurafenib = 0.3; lactate per cell with vemurafenib = 2.37; call = inactive
HIP1R → cell gain with vemurafenib = 0.93; lactate per cell with vemurafenib = 0.91; call = inactive
EIF2S3 → cell gain with vemurafenib = 0.18; lactate per cell with vemurafenib = 1.38; call = inactive
OR8H3 → cell gain with vemurafenib = 0.68; lactate per cell with vemurafenib = 0.69; call = inactive
HMGCL → cell gain with vemurafenib = 0.47; lactate per cell with vemurafenib = 1.41; call = inactive
TAS1R1 → cell gain with vemurafenib = 0.87; lactate per cell with vemurafenib = 0.88; call = inactive
RAD54L2 → cell gain with vemurafenib = 0.55; lactate per cell with vemurafenib = 0.55; call = inactive
ATR → cell gain with vemurafenib = 0.21; lactate per cell with vemurafenib = 1.75; call = inactive
GHSR → cell gain with vemurafenib = -0.02; lactate per cell with vemurafenib = 1.15; call = inactive
HTN1 → cell gain with vemurafenib = 0.26; lactate per cell with vemurafenib = 0.9; call = inactive
TBC1D3B → cell gain with vemurafenib = 1.15; lactate per cell with vemurafenib = 0.63; call = inactive
TIMP4 → cell gain with vemurafenib = 0.95; lactate per cell with vemurafenib = 0.18; call = active
HBZ → cell gain with vemurafenib = 0.69; lactate per cell with vemurafenib = 0.52; call = inactive
BABAM2 → cell gain with vemurafenib = 0.11; lactate per cell with vemurafenib = 0.96; call = inactive
COLGALT2 → cell gain with vemurafenib = 1.06; lactate per cell with vemurafenib = 1.15; call = inactive
LYZL2 → cell gain with vemurafenib = 0.54; lactate per cell with vemurafenib = 0.71; call = inactive
GNG8 → cell gain with vemurafenib = 0; lactate per cell with vemurafenib = 0; call = inactive
MANBA → cell gain with vemurafenib = 0.64; lactate per cell with vemurafenib = 1; call = inactive
ADGRA1 → cell gain with vemurafenib = 0.57; lactate per cell with vemurafenib = 1.19; call = inactive
RASL10A → cell gain with vemurafenib = 0.44; lactate per cell with vemurafenib = 1.14; call = inactive
ONECUT2 → cell gain with vemurafenib = 0.3; lactate per cell with vemurafenib = 1.95; call = inactive
SCN7A → cell gain with vemurafenib = 0.49; lactate per cell with vemurafenib = 0.98; call = inactive
FCHO1 → cell gain with vemurafenib = 0.92; lactate per cell with vemurafenib = 0.86; call = inactive
FFAR4 → cell gain with vemurafenib = 1.23; lactate per cell with vemurafenib = 0.87; call = inactive
EDNRA → cell gain with vemurafenib = 0.97; lactate per cell with vemurafenib = 0.22; call = inactive
CAPNS2 → cell gain with vemurafenib = 0.69; lactate per cell with vemurafenib = 0.42; call = inactive
WNT8B → cell gain with vemurafenib = 0.24; lactate per cell with vemurafenib = 1.6; call = inactive
PEX11B → cell gain with vemurafenib = 0.48; lactate per cell with vemurafenib = 1.39; call = inactive
AMN → cell gain with vemurafenib = 0.81; lactate per cell with vemurafenib = 1.09; call = inactive
HOXD1 → cell gain with vemurafenib = 0.58; lactate per cell with vemurafenib = 0.8; call = inactive

Copied from the list.
Entry of FCHO1 under “cell gain with vemurafenib”: 0.92
For “lactate per cell with vemurafenib”, PCYT2 has 0.77
